Here are results for one molecule from article PMC10803214.

Results are given in words; binding and its absence hold for the method and conditions named. Binding seen in cells or lysates may run through a third protein. Some entries that bind do so weakly or less than the wild type.

This test deals with T1, DmMIC60 (endogenous, fly mitochondria) (D. melanogaster (endogenous in flies)) (UniProt P91928).
T1 sequence: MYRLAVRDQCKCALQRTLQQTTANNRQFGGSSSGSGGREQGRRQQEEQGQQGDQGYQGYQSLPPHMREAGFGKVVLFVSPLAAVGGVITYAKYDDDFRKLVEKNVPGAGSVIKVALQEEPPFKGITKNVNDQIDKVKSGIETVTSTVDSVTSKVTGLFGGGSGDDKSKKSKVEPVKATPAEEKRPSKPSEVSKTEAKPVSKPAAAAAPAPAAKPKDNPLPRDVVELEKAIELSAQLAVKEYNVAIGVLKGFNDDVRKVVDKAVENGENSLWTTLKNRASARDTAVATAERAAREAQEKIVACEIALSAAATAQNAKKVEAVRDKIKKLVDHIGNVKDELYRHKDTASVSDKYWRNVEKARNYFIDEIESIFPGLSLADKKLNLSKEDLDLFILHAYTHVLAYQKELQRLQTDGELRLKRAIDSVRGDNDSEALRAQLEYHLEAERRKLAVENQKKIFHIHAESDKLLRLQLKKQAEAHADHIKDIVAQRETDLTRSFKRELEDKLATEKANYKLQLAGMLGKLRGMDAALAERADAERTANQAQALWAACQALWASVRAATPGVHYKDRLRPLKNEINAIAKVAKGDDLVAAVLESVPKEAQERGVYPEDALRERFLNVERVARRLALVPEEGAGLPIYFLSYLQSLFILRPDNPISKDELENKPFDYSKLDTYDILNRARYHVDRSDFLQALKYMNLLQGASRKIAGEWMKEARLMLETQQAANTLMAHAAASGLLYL
Kind of test: co-IP; mitochondria isolated from WT flies (1 mg), solubilised with 1% digitonin; antisera on protein A-Sepharose, 1 h at 4°C, 10 washes with 0.3% digitonin, eluted with 0.1 M glycine pH 2.8; immunoblot; DmMIC60 and CG41128 used as baits.

B1: DmMIC13 (endogenous, fly mitochondria) (protein, UniProt Q9VVH3 1-122)
chain: MVLGFLVRGGLVAATVYYTQKVGIWGDSDQTDKLYNDIKSELRPHVQKLEKQLPFEVPQLPKTGEMRFLAKHYYNEGVKNTFRFIHMLPCYAGRGLKKVKDTFQDFAQSPAIAGGAESSPPK
B1: the binding entry is recorded as “binds”.
